Patent US20260193294A1, “POLYPEPTIDE INHIBITOR, AND PREPARATION METHOD THEREFOR AND USE THEREOF” (SHANGHAI HANSOH BIOMEDICAL CO., LTD., priority 2022, published 2026)
For some assays here: At least one peptide structure holds a part that was inferred or is arguable (an end, a ring closure or a residue). At least one structure is not confirmed: it was looked up by name or label, or the drawing left a doubt. Positions of bridges follow the written chain, without caps; N, C: chain ends. Non-standard residues stand in square brackets, D forms with d. Residues, ends and D or L forms follow the SMILES beside them. *: point of attachment. X1 = CN(CCNC(=O)CCOCCOCC[N+](C)(C)CCNC(=O)COCCOCCNC(=O)COCCOCCNC(=O)CC[C@H](NC(=O)CCCCCCCCCCCCCCC(=O)O)C(=O)O)*; Trp(7-Me) = Cc1cccc2c(C[C@H](N)C(=O)O)c[nH]c12; 2Nal = N[C@@H](Cc1ccc2ccccc2c1)C(=O)O; AEF = NCCOc1ccc(C[C@H](N)C(=O)O)cc1; Ac6c(4-thia) = NC1(C(=O)O)CCSCC1; 3Pal = N[C@@H](Cc1cccnc1)C(=O)O; Pen = CC(C)(S)[C@H](N)C(=O)O; Thp = NC1(C(=O)O)CCOCC1

Tests used:
[1] = target: T1, IL23R (Homo sapiens, UniProt Q5VWK5); test: Competing with IL23 for binding to IL23R (HTRF, IL23/IL23R binding assay kit); conditions: 2 hours incubation at room temperature
T1 construct: Tag2 (identity not disclosed); purchased PerkinElmer 64BDPIL23PEH
T1 sequence (Q5VWK5 24-355 limits assumed): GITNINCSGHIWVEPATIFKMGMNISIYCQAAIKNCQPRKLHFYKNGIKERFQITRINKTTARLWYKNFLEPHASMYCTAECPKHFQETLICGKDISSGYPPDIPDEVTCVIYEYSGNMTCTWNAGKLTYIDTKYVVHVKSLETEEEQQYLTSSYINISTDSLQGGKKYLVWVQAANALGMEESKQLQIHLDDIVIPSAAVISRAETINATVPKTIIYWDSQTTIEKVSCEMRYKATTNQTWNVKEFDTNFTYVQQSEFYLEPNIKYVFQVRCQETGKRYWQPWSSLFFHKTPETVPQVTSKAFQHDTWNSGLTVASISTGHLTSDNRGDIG
Procedure: The compounds of the present disclosure were screened in IL23/IL23R BINDING ASSAY KITS (PerkinElmer Cat #64BDPIL23PEH). The screening of the compounds of the present disclosure was carried out by using a multi-well plate (suitable for HTRF determination). Generally, 2 μl of several compounds of the present disclosure and STANDARD SOLUTIONS in KIT were first respectively added to the wells of the multi-well plate. 4 μl of Tag1-IL23, 4 μl of Tag2-IL23R, and 10 μL of pre-mixed Anti-Tag1 Eu Cryptate Antibody and Anti-Tag2 d2 reagent were necessarily added to all the wells. The multi-well plate was protected from light by an opaque cover membrane, and the opaque cover membrane was then removed
The compounds of the present disclosure were screened in IL23/IL23R BINDING ASSAY KITS (PerkinElmer Cat #64BDPIL23PEH). The screening of the compounds of the present disclosure was carried out by using a multi-well plate (suitable for HTRF determination). Generally, 2 μl of several compounds of the present disclosure and STANDARD SOLUTIONS in KIT were first respectively added to the wells of the multi-well plate. […] The signal value was read by an HTRF-compatible detection instrument to detect IC50 value.
(§1) The inhibition rate was calculated as follows: […]

[2] = test system: activation of STAT3 phosphorylation by hIL23 in DB cells; test: Blocking the activation of STAT3 phosphorylation by hIL23 in DB cells (p-STAT3 ELISA); format: cell-based, Human; conditions: DB cells stimulated by rhIL-23 0.5 nM, half an hour; read-out: pStat3 IC50
Procedure: To determine the inhibitory activity of the compounds of the present disclosure on the activation of STAT3 phosphorylation by hIL23 in DB cells
The compounds produced above were added to DB (ATCC Cat #CRL-2289) cells to inhibit the signal transduction of rhIL-23 cytokine. The screening of compounds was carried out by a multi-well plate (suitable for ELISA assay). Generally, in the presence of some of the above compounds of the present disclosure, 6.25×10^6 cells/ml of DB cells were stimulated by rhIL-23 (0.5 nM, R&D SYSTEMS) in RPMI medium (Invitrogen) containing 10% of FBS, and after half an hour, lysis was carried out on ice using 50 μL of 2×lysis buffer (CST). The content of p-STAT3 in the lysate was determined by PathScan Phospho-Stat3 (Tyr705) Sandwich ELISA Kit (CST Cat #7300C), so as to calculate the activity of the compounds of the present disclosure in blocking rhIL23 signal transduction in DB cells.
as §1
By using log (inhibitor) vs. response—Variable slope (four parameters) in Graphpad, the data of ELISA experiment results were subjected to non-linear regression fitting to fit a curve and obtain the IC50 value.

Row | Structure (SMILES) | IC50 [1] | IC50 [2]
1 | CC(=O)NCCCC[C@@H]1NC(=O)[C@H](Cc2c[nH]c3c(C)cccc23)NC(=O)[C@H]([C@@H](C)O)NC(=O)[C@H](CC(N)=O)NC(=O)[C@@H](NC(C)=O)C(C)(C)SSC(C)(C)[C@@H](C(=O)N[C@@H](Cc2ccc(OCCN)cc2)C(=O)N[C@@H](Cc2ccc3ccccc3c2)C(=O)NC2(C(=O)N[C@@H](CCC(=O)O)C(=O)N[C@@H](CC(N)=O)C(=O)N[C@@H](Cc3cccnc3)C(=O)N(C)CCNC(=O)CCOCCOCC[N+](C)(C)CCNC(=O)COCCOCCNC(=O)COCCOCCNC(=O)CC[C@H](NC(=O)CCCCCCCCCCCCCCC(=O)O)C(=O)O)CCSCC2)NC1=O [Example 3-16-1] (Ac-[Pen]NT[Trp(7-Me)]K(Ac)[Pen][AEF][2Nal][Ac6c(4-thia)]EN[3Pal]-X1; disulfide 1-6) | 1240 pM | –
2 | CC(=O)NCCCC[C@@H]1NC(=O)[C@H](Cc2c[nH]c3c(C)cccc23)NC(=O)[C@H]([C@@H](C)O)NC(=O)[C@H](CC(N)=O)NC(=O)[C@@H](NC(C)=O)C(C)(C)SSC(C)(C)[C@@H](C(=O)N[C@@H](Cc2ccc(OCCN)cc2)C(=O)N[C@@H](Cc2ccc3ccccc3c2)C(=O)NC2(C(=O)N[C@@H](CCC(=O)O)C(=O)N[C@@H](CC(N)=O)C(=O)N[C@@H](Cc3ccncc3)C(=O)N(C)CC(N)=O)CCC(F)(F)CC2)NC1=O [Example 1-14] | – | 1.4 pM
3 | CC(=O)NCCCC[C@@H]1NC(=O)[C@H](Cc2c[nH]c3c(C)cccc23)NC(=O)[C@H]([C@@H](C)O)NC(=O)[C@H](CC(N)=O)NC(=O)[C@@H](NC(C)=O)C(C)(C)SSC(C)(C)[C@@H](C(=O)N[C@@H](Cc2ccc(OCCN)cc2)C(=O)N[C@@H](Cc2ccc3ccccc3c2)C(=O)NC2(C(=O)N[C@@H](CCC(=O)O)C(=O)N[C@@H](CC(N)=O)C(=O)N[C@@H](Cc3cccnc3)C(=O)N(C)CCNC(=O)CCOCCOCC[N+](C)(C)CCNC(=O)COCCOCCNC(=O)COCCOCCNC(=O)CC[C@H](NC(=O)CCCCCCCCCCCCCCC(=O)O)C(=O)O)CCOCC2)NC1=O [Example 1] (Ac-[Pen]NT[Trp(7-Me)]K(Ac)[Pen][AEF][2Nal][Thp]EN[3Pal]-X1; disulfide 1-6) | 1200 pM | –
4 | CC(=O)NCCCC[C@@H]1NC(=O)[C@H](Cc2c[nH]c3c(C)cccc23)NC(=O)[C@H]([C@@H](C)O)NC(=O)[C@H](CC(N)=O)NC(=O)[C@@H](NC(C)=O)C(C)(C)SSC(C)(C)[C@@H](C(=O)N[C@@H](Cc2ccc(OCCN)cc2)C(=O)N[C@@H](Cc2ccc3ccccc3c2)C(=O)NC2(C(=O)N[C@@H](CCC(=O)O)C(=O)N[C@@H](CC(N)=O)C(=O)N[C@@H](Cc3cccnc3)C(=O)N(C)CCNC(=O)CCCCC[N+](C)(C)C)CCOCC2)NC1=O [Example 12] | – | 6 pM
5 | CC(=O)NCCCC[C@@H]1NC(=O)[C@H](Cc2c[nH]c3c(C)cccc23)NC(=O)[C@H]([C@@H](C)O)NC(=O)[C@H](CC(N)=O)NC(=O)[C@@H](NC(C)=O)C(C)(C)SSC(C)(C)[C@@H](C(=O)N[C@@H](Cc2ccc(OCCN)cc2)C(=O)N[C@@H](Cc2ccc3ccccc3c2)C(=O)NC2(C(=O)N[C@@H](CCC(=O)O)C(=O)N[C@@H](CC(N)=O)C(=O)N[C@@H](Cc3cccnc3)C(=O)N(C)CCNC(=O)CCOCCOCC[N+](C)(C)C)CCOCC2)NC1=O [Example 3] | – | 1.4 pM
